In the supplement of paper PMC6078165:
The reference is the same well before dosing, and untreated signal decays as well.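 Labels refer to human fibroblasts, largely primary: uterine (C12385, HUF), lung (H6013), bone (Hs27A), adrenal (HADF), skin (WS1), plus mammary HMF and breast cancer-associated Hs343T. Cancer lines are basal-like or mesenchymal-like triple-negative breast cancer. The paper counts as hits responses shifting over 3x the replicate standard deviation. The tissue of the other fibroblasts is not given here.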

Test system: MDAMB468
Test: relative JC-1 red fluorescence (viability) vs pre-drug, coculture with fibroblast (fraction); higher = more viable cancer cells
Method: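 JC-1 labelled TNBC cells cocultured 1:1 (1,500 cells each) with CellTrace Violet stained primary or stromal fibroblasts in 384-well plates in FluoroBrite medium, treated with one of 42 anticancer drugs at 0.1, 1, 10 or 100 uM. JC-1 red fluorescence (mitochondrial integrity in cancer cells only) was read by plate reader every 8 h for 72 h. Values are normalised to each well's pre-drug value. The stock of one drug was tenfold lower, so its dose labels may be too high.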

CCc1c2c(nc3ccc(OC(=O)N4CCC(N5CCCCC5)CC4)cc13)-c1cc3c(c(=O)n1C2)COC(=O)[C@]3(O)CC [Irinotecan]
relative JC-1 red fluorescence
Settings | 8 h | 16 h | 24 h | 32 h | 40 h | 48 h | 56 h | 64 h | 72 h
10 µM, coculture fibroblast: C12385 | 0.891 | 0.829 | 0.803 | 0.735 | 0.694 | 0.677 | 0.633 | 0.599 | 0.586
10 µM, coculture fibroblast: H6013 | 0.887 | 0.882 | 0.823 | 0.782 | 0.721 | 0.715 | 0.669 | 0.648 | 0.595
10 µM, coculture fibroblast: H6019 | 0.83 | 0.867 | 0.865 | 0.828 | 0.808 | 0.809 | 0.759 | 0.743 | 0.737
10 µM, coculture fibroblast: H6076 | 0.947 | 0.939 | 0.95 | 0.954 | 0.871 | 0.8568 | 0.817 | 0.794 | 0.866
10 µM, coculture fibroblast: H6231 | 0.853 | 0.9509 | 0.889 | 0.884 | 0.824 | 0.802 | 0.747 | 0.707 | 0.678
10 µM, coculture fibroblast: HADF | 0.8985 | 0.855 | 0.814 | 0.7822 | 0.7055 | 0.674 | 0.615 | 0.58 | 0.517
10 µM, coculture fibroblast: HCFa | 0.872 | 0.867 | 0.814 | 0.779 | 0.699 | 0.684 | 0.628 | 0.589 | 0.541
10 µM, coculture fibroblast: HCPF | 0.889 | 0.894 | 0.868 | 0.88 | 0.786 | 0.7711 | 0.729 | 0.724 | 0.732
10 µM, coculture fibroblast: HHSteC | 0.902 | 0.892 | 0.854 | 0.824 | 0.787 | 0.776 | 0.692 | 0.666 | 0.605
10 µM, coculture fibroblast: HMF | 0.871 | 0.902 | 0.879 | 0.912 | 0.826 | 0.826 | 0.787 | 0.781 | 0.799
10 µM, coculture fibroblast: HPFa | 0.959 | 0.962 | 0.931 | 0.873 | 0.839 | 0.827 | 0.761 | 0.739 | 0.661
10 µM, coculture fibroblast: HUF | 0.916 | 0.807 | 0.756 | 0.691 | 0.634 | 0.5938 | 0.546 | 0.527 | 0.501
10 µM, coculture fibroblast: Hs5 | 0.895 | 0.9578 | 0.865 | 0.867 | 0.801 | 0.805 | 0.855 | 0.819 | 0.715
10 µM, coculture fibroblast: Hs27A | 0.8929 | 0.852 | 0.7821 | 0.7641 | 0.683 | 0.6558 | 0.616 | 0.592 | 0.545
10 µM, coculture fibroblast: Hs343T | 0.878 | 0.9233 | 0.883 | 0.889 | 0.794 | 0.774 | 0.721 | 0.71 | 0.709
10 µM, coculture fibroblast: WS1 | 0.8836 | 0.813 | 0.7877 | 0.754 | 0.704 | 0.685 | 0.664 | 0.648 | 0.646
100 µM, coculture fibroblast: C12385 | 0.8363 | 0.835 | 0.824 | 0.766 | 0.732 | 0.734 | 0.696 | 0.677 | 0.67
100 µM, coculture fibroblast: H6013 | 0.889 | 0.904 | 0.86 | 0.848 | 0.867 | 0.883 | 0.856 | 0.863 | 0.812
100 µM, coculture fibroblast: H6019 | 0.851 | 0.8546 | 0.826 | 0.77 | 0.742 | 0.748 | 0.716 | 0.723 | 0.73
100 µM, coculture fibroblast: H6076 | 0.951 | 0.968 | 0.951 | 0.94 | 0.876 | 0.889 | 0.865 | 0.859 | 0.887
100 µM, coculture fibroblast: H6231 | 0.837 | 0.899 | 0.831 | 0.814 | 0.719 | 0.691 | 0.641 | 0.609 | 0.61
100 µM, coculture fibroblast: HADF | 0.915 | 0.92 | 0.885 | 0.893 | 0.915 | 0.906 | 0.873 | 0.863 | 0.769
100 µM, coculture fibroblast: HCFa | 0.911 | 0.9 | 0.8613 | 0.8396 | 0.8172 | 0.826 | 0.791 | 0.769 | 0.73
100 µM, coculture fibroblast: HCPF | 0.921 | 0.966 | 0.937 | 0.832 | 0.9 | 0.879 | 0.858 | 0.856 | 0.857
100 µM, coculture fibroblast: HHSteC | 0.92 | 0.905 | 0.861 | 0.832 | 0.804 | 0.8194 | 0.7594 | 0.7397 | 0.674
100 µM, coculture fibroblast: HMF | 0.8849 | 0.928 | 0.877 | 0.868 | 0.778 | 0.77 | 0.731 | 0.715 | 0.711
100 µM, coculture fibroblast: HPFa | 0.9467 | 0.962 | 0.939 | 0.885 | 0.89 | 0.889 | 0.839 | 0.843 | 0.775
100 µM, coculture fibroblast: HUF | 0.8631 | 0.8016 | 0.7492 | 0.689 | 0.647 | 0.636 | 0.593 | 0.591 | 0.584
100 µM, coculture fibroblast: Hs5 | 0.9773 | 0.94 | 0.9214 | 0.913 | 0.851 | 0.835 | 0.778 | 0.71 | 0.719
100 µM, coculture fibroblast: Hs27A | 0.916 | 0.987 | 0.9161 | 0.984 | 0.807 | 0.761 | 0.903 | 0.815 | 0.93
100 µM, coculture fibroblast: Hs343T | 0.895 | 0.9596 | 0.922 | 0.92 | 0.839 | 0.83 | 0.796 | 0.774 | 0.772
100 µM, coculture fibroblast: WS1 | 0.847 | 0.795 | 0.758 | 0.709 | 0.667 | 0.628 | 0.586 | 0.559 | 0.551
